# ± gives the standard deviation of the averaged measurements. Only a part is listed here, and it is no random draw.
# Amino acid sequences for entries named in this document (tags omitted). A change or cut given only in a name is not applied to a line headed by its entry.
# UniProt Q9H832: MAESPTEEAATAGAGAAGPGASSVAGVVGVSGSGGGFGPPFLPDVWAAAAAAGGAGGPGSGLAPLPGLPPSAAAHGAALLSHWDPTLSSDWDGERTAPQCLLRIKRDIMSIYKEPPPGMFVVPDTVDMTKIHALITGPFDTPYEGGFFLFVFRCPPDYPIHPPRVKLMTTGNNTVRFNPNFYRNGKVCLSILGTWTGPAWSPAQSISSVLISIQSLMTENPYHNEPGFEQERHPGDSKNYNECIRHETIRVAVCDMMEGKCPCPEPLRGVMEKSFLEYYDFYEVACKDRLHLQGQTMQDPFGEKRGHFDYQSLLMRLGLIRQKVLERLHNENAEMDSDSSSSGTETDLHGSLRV
# UniProt Q9H3K2: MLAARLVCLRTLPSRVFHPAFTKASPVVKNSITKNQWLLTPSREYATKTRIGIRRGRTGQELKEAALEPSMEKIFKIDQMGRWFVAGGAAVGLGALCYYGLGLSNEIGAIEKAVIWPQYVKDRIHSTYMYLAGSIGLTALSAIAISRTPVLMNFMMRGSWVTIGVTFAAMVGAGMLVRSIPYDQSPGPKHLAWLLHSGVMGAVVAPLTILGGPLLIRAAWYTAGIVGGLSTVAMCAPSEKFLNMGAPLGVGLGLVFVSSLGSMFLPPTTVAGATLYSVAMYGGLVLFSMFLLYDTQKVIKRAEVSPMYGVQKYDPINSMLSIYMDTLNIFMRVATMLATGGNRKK
# UniProt Q9HDC9: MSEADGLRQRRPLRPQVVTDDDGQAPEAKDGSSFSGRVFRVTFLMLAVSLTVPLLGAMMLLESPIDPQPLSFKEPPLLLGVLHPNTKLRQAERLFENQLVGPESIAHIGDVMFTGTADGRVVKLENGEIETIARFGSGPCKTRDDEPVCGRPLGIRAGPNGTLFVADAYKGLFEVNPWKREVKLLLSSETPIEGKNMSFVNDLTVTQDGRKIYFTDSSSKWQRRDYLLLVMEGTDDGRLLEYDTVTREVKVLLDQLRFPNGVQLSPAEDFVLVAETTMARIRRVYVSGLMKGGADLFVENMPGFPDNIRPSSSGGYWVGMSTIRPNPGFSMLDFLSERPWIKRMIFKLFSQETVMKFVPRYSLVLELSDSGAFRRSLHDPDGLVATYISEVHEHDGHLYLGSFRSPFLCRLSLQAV
# UniProt Q9H2G9: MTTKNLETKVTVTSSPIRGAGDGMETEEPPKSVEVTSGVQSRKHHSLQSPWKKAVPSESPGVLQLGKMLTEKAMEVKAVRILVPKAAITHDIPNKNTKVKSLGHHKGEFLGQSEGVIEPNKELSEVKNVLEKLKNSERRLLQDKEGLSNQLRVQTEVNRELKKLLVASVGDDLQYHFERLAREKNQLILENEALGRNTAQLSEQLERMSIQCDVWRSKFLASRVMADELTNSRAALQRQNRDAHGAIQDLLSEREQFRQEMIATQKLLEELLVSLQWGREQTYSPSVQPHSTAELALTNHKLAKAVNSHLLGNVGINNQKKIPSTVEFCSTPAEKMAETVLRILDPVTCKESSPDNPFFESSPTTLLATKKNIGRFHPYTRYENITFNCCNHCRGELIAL
# UniProt Q9GZR1: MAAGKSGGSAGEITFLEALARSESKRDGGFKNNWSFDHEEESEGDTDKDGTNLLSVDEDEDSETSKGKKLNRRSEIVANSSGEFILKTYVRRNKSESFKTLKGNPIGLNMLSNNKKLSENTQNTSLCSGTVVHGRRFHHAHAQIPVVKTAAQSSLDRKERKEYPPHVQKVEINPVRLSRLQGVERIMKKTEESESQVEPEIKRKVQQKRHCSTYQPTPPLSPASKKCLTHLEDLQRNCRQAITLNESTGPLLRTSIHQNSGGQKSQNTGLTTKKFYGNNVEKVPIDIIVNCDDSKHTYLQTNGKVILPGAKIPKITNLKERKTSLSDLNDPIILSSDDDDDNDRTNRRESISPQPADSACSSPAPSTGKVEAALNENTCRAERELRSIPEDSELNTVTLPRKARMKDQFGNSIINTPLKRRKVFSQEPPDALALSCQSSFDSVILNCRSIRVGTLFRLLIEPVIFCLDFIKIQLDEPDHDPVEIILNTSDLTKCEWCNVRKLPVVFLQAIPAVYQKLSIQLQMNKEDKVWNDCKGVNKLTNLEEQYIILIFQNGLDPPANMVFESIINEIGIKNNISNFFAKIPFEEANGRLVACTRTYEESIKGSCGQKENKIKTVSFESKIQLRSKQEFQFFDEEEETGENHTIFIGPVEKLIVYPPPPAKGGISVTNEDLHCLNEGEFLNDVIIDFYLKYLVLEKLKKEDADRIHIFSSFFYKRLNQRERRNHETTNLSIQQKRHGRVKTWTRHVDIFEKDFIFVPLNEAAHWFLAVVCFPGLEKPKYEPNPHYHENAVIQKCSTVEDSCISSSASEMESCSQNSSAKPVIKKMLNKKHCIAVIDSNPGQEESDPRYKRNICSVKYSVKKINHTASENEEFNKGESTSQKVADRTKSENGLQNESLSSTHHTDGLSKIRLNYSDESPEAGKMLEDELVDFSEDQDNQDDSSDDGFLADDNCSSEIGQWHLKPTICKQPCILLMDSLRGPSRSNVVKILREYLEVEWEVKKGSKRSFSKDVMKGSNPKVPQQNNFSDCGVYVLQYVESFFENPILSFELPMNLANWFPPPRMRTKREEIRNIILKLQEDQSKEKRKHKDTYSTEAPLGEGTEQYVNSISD
# UniProt Q9H2K0, whole entry, looked up: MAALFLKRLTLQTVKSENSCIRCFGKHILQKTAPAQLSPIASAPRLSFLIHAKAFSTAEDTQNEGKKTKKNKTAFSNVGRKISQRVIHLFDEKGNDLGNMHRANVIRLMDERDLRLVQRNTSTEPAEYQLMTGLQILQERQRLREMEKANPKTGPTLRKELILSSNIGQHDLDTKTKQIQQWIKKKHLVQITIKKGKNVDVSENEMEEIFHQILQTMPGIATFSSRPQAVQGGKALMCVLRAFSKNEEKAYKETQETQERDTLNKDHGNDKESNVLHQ
# UniProt Q9HBL7: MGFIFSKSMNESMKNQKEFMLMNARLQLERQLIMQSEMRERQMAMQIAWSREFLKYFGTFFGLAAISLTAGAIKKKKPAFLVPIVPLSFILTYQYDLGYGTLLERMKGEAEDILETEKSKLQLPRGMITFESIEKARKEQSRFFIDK
# UniProt Q9C0E8: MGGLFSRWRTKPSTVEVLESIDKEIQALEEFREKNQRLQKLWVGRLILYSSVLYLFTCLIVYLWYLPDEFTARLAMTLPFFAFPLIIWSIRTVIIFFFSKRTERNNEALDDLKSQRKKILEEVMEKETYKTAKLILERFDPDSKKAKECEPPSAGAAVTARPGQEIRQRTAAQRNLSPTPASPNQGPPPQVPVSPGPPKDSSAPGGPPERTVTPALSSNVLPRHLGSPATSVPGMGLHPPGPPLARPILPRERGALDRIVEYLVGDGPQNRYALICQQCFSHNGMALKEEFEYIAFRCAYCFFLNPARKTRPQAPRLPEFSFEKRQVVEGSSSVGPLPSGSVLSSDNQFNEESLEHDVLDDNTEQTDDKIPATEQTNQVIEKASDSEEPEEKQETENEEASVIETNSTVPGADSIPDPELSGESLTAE
# UniProt Q9H1D9: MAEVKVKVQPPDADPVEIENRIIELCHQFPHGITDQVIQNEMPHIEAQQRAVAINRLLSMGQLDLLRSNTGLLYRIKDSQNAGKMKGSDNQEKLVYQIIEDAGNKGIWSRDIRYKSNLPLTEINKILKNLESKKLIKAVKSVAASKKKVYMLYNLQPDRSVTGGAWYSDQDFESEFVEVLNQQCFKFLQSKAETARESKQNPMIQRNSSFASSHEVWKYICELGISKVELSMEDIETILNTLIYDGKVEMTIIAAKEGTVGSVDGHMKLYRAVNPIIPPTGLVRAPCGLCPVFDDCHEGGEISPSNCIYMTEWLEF
# UniProt Q9HC07: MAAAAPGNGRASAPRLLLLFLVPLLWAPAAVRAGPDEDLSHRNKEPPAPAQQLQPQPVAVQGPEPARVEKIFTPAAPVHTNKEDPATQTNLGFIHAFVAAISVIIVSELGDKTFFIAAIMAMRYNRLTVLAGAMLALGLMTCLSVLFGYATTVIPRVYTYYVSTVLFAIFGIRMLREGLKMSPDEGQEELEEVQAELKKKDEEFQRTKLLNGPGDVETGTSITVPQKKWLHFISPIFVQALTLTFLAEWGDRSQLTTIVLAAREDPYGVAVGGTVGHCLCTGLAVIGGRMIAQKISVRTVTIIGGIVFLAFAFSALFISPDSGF
# UniProt Q9GZM8: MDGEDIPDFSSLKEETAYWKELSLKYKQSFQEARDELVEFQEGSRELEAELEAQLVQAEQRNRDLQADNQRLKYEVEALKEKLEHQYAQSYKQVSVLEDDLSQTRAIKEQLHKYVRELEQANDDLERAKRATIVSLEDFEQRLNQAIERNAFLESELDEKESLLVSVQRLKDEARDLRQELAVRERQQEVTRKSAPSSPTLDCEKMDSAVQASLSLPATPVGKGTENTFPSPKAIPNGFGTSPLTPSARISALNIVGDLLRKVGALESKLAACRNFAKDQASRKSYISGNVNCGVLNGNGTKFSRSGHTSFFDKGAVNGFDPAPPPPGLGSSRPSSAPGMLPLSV
# UniProt Q9NTW7: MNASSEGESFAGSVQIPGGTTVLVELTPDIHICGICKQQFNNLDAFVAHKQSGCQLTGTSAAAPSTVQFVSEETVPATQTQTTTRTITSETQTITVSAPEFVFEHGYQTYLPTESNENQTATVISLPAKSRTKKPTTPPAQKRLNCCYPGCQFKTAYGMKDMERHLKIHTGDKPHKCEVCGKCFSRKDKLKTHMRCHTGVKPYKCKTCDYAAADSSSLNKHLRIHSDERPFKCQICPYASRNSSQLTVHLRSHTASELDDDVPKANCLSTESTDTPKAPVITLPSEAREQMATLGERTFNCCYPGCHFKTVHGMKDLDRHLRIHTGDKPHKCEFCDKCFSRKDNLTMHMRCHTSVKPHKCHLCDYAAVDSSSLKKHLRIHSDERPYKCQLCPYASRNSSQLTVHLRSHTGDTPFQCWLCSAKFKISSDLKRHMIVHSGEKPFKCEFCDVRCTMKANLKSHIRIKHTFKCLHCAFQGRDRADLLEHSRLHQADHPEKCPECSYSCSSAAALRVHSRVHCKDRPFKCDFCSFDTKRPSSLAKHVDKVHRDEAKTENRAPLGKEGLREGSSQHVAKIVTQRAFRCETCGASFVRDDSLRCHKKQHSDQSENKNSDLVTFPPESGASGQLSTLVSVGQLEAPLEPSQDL
# UniProt Q9H2K8: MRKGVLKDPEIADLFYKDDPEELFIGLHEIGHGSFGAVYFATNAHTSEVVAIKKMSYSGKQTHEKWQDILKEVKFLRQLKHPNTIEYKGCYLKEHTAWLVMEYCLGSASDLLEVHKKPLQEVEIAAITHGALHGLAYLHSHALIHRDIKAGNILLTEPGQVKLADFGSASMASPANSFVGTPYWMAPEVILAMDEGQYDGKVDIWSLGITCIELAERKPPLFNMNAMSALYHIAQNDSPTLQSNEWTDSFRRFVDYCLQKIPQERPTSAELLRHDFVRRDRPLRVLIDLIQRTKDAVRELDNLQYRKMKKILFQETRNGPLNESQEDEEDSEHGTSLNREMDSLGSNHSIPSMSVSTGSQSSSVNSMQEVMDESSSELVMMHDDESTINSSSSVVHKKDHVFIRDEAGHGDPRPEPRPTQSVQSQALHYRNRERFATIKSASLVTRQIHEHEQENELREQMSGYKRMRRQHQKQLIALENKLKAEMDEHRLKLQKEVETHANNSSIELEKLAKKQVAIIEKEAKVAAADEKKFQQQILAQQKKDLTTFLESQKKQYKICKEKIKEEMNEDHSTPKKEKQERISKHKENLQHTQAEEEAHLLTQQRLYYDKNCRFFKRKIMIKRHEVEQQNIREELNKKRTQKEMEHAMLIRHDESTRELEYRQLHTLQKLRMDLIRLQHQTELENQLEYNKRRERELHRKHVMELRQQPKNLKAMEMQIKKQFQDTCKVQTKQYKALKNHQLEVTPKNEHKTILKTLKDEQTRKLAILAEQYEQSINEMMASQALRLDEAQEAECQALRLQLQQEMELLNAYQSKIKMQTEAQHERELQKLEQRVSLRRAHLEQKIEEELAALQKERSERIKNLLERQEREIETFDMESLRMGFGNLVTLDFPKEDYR
# UniProt Q9NPA8: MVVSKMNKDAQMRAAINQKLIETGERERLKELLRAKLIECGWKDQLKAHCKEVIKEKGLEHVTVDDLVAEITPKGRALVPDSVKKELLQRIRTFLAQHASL
# UniProt Q9H6Q4: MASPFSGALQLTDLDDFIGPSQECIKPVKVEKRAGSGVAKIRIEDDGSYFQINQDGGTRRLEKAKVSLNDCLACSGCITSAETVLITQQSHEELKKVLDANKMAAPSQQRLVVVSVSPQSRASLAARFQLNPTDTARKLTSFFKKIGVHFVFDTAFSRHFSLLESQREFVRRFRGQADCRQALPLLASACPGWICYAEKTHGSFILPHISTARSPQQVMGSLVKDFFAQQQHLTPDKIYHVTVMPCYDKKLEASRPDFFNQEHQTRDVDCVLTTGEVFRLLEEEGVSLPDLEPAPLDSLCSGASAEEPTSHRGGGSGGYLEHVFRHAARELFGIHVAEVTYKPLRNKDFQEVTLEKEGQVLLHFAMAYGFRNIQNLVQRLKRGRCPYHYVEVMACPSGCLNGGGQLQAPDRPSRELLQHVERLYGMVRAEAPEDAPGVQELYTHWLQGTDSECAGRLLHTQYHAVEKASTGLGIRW
# Compound: Nc1ncnc2c1ncn2[C@@H]1O[C@H](COP(=O)(O)OP(=O)(O)NP(=O)(O)O)[C@@H](O)[C@H]1O [adenylyl imidodiphosphate]
# Experiment: NP40-soluble protein abundance relative to vehicle (solubility fold change) (ratio); higher = more soluble protein in presence of AMP-PNP
# Summary of the method: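 Values are fold changes against the detergent-processed vehicle, based on vsn-normalised intensities. Jurkat crude lysate was treated at eight concentrations from 0.1 to 10 mM (10 min at room temperature, then 3 min at 37 °C), solubilised with 0.8% NP40 and benzonase, ultracentrifuged and analysed by TMT-labelled LC-MS/MS over three independent experiments.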
Target,NP40-soluble protein abundance (concentration: 1mM),NP40-soluble protein abundance (concentration: 2mM),NP40-soluble protein abundance (concentration: 4mM),NP40-soluble protein abundance (concentration: 6mM),NP40-soluble protein abundance (concentration: 8mM),NP40-soluble protein abundance (concentration: 10mM)
WDR61 (UniProt Q9GZS3),0.956 ± 0.015,0.916 ± 0.077,0.961 ± 0.02,0.92 ± 0.018,0.961 ± 0.025,0.918 ± 0.035
GLIPR2 (UniProt Q9H4G4),1.01 ± 0.031,1.04 ± 0.081,1.02 ± 0.036,1.09 ± 0.04,1.11 ± 0.091,1.12 ± 0.025
UniProt Q9H7E9 and related entries,1.04 ± 0.075,1.05 ± 0.068,1.05 ± 0.07,1.05 ± 0.062,1.04 ± 0.043,1.06 ± 0.086
UniProt Q9H832 and related entries,1.02 ± 0.039,1.05 ± 0.094,1.01 ± 0.051,0.974 ± 0.046,0.979 ± 0.022,0.98 ± 0.053
CUEDC2 (UniProt Q9H467),1.01 ± 0.024,1.06 ± 0.05,1 ± 0.041,0.992 ± 0.021,0.987 ± 0.037,0.984 ± 0.092
GHITM (UniProt Q9H3K2),0.981 ± 0.037,0.937 ± 0.04,0.977 ± 0.01,0.986 ± 0.037,0.989 ± 0.021,0.962 ± 0.037
SSU72 (UniProt Q9NP77),1.04 ± 0.06,1.06 ± 0.026,1.02 ± 0.065,1.02 ± 0.053,1.04 ± 0.03,1.07 ± 0.047
UniProt Q9H773 and related entries,1.03 ± 0.02,1.01 ± 0.019,1.041 ± 0.0073,1.03 ± 0.015,1.01 ± 0.019,1 ± 0.022
TFB2M (UniProt Q9H5Q4),1.01 ± 0.037,1 ± 0.03,1 ± 0.024,1.01 ± 0.014,1 ± 0.017,1.05 ± 0.035
UniProt Q9H0W9 and related entries,0.99 ± 0.035,0.972 ± 0.036,0.973 ± 0.029,0.974 ± 0.012,0.949 ± 0.043,0.935 ± 0.037
UniProt Q9H3Z4 and related entries,1.02 ± 0.044,1.03 ± 0.018,1.02 ± 0.05,1.04 ± 0.021,1.019 ± 0.0084,1.05 ± 0.017
UniProt Q9HDC9,0.961 ± 0.021,0.928 ± 0.03,0.956 ± 0.014,0.954 ± 0.049,0.973 ± 0.036,0.946 ± 0.028
UniProt Q9H2G9 and related entries,0.986 ± 0.039,0.992 ± 0.027,1.01 ± 0.013,0.977 ± 0.031,0.9649 ± 0.009,0.988 ± 0.011
UniProt Q9H5V9 and related entries,1.02 ± 0.016,1.04 ± 0.018,1.07 ± 0.028,1.07 ± 0.025,1.06 ± 0.042,1.1 ± 0.036
CPVL (UniProt Q9H3G5),0.996 ± 0.037,0.993 ± 0.081,0.998 ± 0.033,0.974 ± 0.051,1 ± 0.029,0.983 ± 0.059
ESF1 (UniProt Q9H501),1.07 ± 0.035,1.15 ± 0.06,1.1 ± 0.016,1.11 ± 0.02,1.08 ± 0.027,1.12 ± 0.029
UniProt Q9GZR1 and related entries,1 ± 0.037,1.02 ± 0.029,0.971 ± 0.021,0.99 ± 0.033,0.983 ± 0.025,0.984 ± 0.015
UniProt Q9NNW7 and related entries,1.01 ± 0.021,1.03 ± 0.024,1.03 ± 0.016,1.028 ± 0.0094,1.01 ± 0.012,1.04 ± 0.044
UniProt Q9H2G2-2,1.02 ± 0.0055,1.04 ± 0.039,1 ± 0.036,1.002 ± 0.01,0.961 ± 0.039,0.996 ± 0.06
MTIF3 (UniProt Q9H2K0),0.963 ± 0.026,1.05 ± 0.029,0.9992 ± 0.007,1.002 ± 0.006,1.04 ± 0.032,1.02 ± 0.013

Target,NP40-soluble protein abundance (concentration: 1mM),NP40-soluble protein abundance (concentration: 2mM),NP40-soluble protein abundance (concentration: 4mM),NP40-soluble protein abundance (concentration: 6mM),NP40-soluble protein abundance (concentration: 8mM),NP40-soluble protein abundance (concentration: 10mM)
UniProt Q9HBL7,1.02 ± 0.049,0.98 ± 0.06,0.989 ± 0.035,0.997 ± 0.015,1 ± 0.03,0.979 ± 0.02
PARVG (UniProt Q9HBI0),0.993 ± 0.019,0.995 ± 0.039,1 ± 0.033,0.942 ± 0.014,0.931 ± 0.018,0.932 ± 0.02
LYRM4 (UniProt Q9HD34),0.95 ± 0.035,0.941 ± 0.046,0.943 ± 0.024,0.96 ± 0.045,0.976 ± 0.03,0.952 ± 0.038
MIS12 (UniProt Q9H081),1 ± 0.037,1.01 ± 0.016,1 ± 0.071,0.927 ± 0.05,0.938 ± 0.022,0.909 ± 0.039
UniProt Q9H0R4 and related entries,0.982 ± 0.051,0.932 ± 0.039,0.9323 ± 0.0072,0.988 ± 0.049,0.947 ± 0.052,0.957 ± 0.043
PTPN23 (UniProt Q9H3S7),1.002 ± 0.0026,1.02 ± 0.031,1.016 ± 0.0094,1.01 ± 0.035,1 ± 0.023,1.02 ± 0.012
MEGF9 (UniProt Q9H1U4),1.01 ± 0.038,1.01 ± 0.051,1.005 ± 0.0014,1.03 ± 0.035,0.977 ± 0.023,1.01 ± 0.013
UniProt Q9C0E8 and related entries,1.01 ± 0.062,1.06 ± 0.09,1.02 ± 0.055,1.01 ± 0.056,1.02 ± 0.052,1.06 ± 0.039
POLR3F (UniProt Q9H1D9),0.959 ± 0.035,0.97 ± 0.08,0.962 ± 0.042,1.04 ± 0.062,1.03 ± 0.077,1.02 ± 0.087
UniProt Q9H6A9 and related entries,1.01 ± 0.016,1.02 ± 0.027,0.98826 ± 0.00019,0.989 ± 0.028,0.9847 ± 0.0089,0.9795 ± 0.0059
CHD8 (UniProt Q9HCK8),1 ± 0.025,0.983 ± 0.036,0.996 ± 0.044,0.957 ± 0.027,0.972 ± 0.029,0.966 ± 0.028
TMEM165 (UniProt Q9HC07),1.06 ± 0.061,1.09 ± 0.09,1.04 ± 0.046,1.05 ± 0.046,1.04 ± 0.038,1.04 ± 0.03
ACTR5 (UniProt Q9H9F9),1.05 ± 0.048,1.07 ± 0.037,1.07 ± 0.043,1.13 ± 0.018,1.14 ± 0.027,1.14 ± 0.024
DHX33 (UniProt Q9H6R0),1.02 ± 0.023,1.06 ± 0.078,1.07 ± 0.082,1.12 ± 0.098,1.17 ± 0.12,1.18 ± 0.14
CBX8 (UniProt Q9HC52),1.08 ± 0.015,1.1 ± 0.04,1.13 ± 0.018,1.23 ± 0.028,1.33 ± 0.062,1.39 ± 0.044
UniProt Q9BZL4-4|Q9BZL4,1 ± 0.033,1.04 ± 0.036,1.01 ± 0.047,0.997 ± 0.023,0.978 ± 0.017,0.999 ± 0.015
POFUT1 (UniProt Q9H488),0.997 ± 0.04,0.975 ± 0.043,1.04 ± 0.086,1.05 ± 0.064,1.03 ± 0.062,1.05 ± 0.034
UniProt Q9GZM8 and related entries,1.01 ± 0.016,1.018 ± 0.01,1 ± 0.013,1 ± 0.039,1.02 ± 0.042,1.02 ± 0.053
FN3KRP (UniProt Q9HA64),1.02 ± 0.019,0.989 ± 0.06,1.03 ± 0.02,0.991 ± 0.044,0.985 ± 0.032,0.986 ± 0.031
UniProt Q9HBE1 and related entries,1.03 ± 0.052,1.05 ± 0.025,1.0468 ± 0.001,1.04 ± 0.029,1.03 ± 0.061,1.05 ± 0.032

Target,NP40-soluble protein abundance (concentration: 1mM),NP40-soluble protein abundance (concentration: 2mM),NP40-soluble protein abundance (concentration: 4mM),NP40-soluble protein abundance (concentration: 6mM),NP40-soluble protein abundance (concentration: 8mM),NP40-soluble protein abundance (concentration: 10mM)
PHAX (UniProt Q9H814),1.02 ± 0.025,1.06 ± 0.043,1.05 ± 0.058,0.994 ± 0.03,0.995 ± 0.033,1.04 ± 0.078
UniProt Q9H3H1 and related entries,1.14 ± 0.14,1.12 ± 0.16,1.04 ± 0.085,1.06 ± 0.27,0.975 ± 0.099,1.01 ± 0.088
CCDC86 (UniProt Q9H6F5),1.12 ± 0.025,1.17 ± 0.096,1.2 ± 0.017,1.25 ± 0.05,1.31 ± 0.084,1.4 ± 0.13
UniProt Q9HCN4 and related entries,1.01 ± 0.047,1.06 ± 0.099,1 ± 0.039,0.976 ± 0.033,0.956 ± 0.032,0.96 ± 0.014
DSN1 (UniProt Q9H410),0.985 ± 0.033,1.01 ± 0.024,0.976 ± 0.029,0.965 ± 0.037,0.926 ± 0.015,0.942 ± 0.021
UniProt Q9H3H3-2|Q9H3H3-3,0.962 ± 0.061,0.928 ± 0.017,0.9666 ± 0.0066,0.985 ± 0.053,1 ± 0.033,0.978 ± 0.019
Q9NPA5 and related entries (UniProt Q9NTW7),1.002 ± 0.0087,0.975 ± 0.023,0.981 ± 0.017,0.983 ± 0.027,0.97 ± 0.017,0.974 ± 0.035
TSPYL1 (UniProt Q9H0U9),0.977 ± 0.025,0.9842 ± 0.0063,0.9646 ± 0.0081,0.9449 ± 0.001,0.94314 ± 0.00052,0.959 ± 0.056
ACBD3 (UniProt Q9H3P7),1.04 ± 0.019,1.02 ± 0.026,1.02 ± 0.015,1.003 ± 0.0074,1 ± 0.037,0.997 ± 0.024
UniProt Q9H0F6 and related entries,1.06 ± 0.044,1.01 ± 0.031,1.01 ± 0.056,0.965 ± 0.046,0.994 ± 0.059,0.98 ± 0.027
TAOK3 (UniProt Q9H2K8),1.04 ± 0.019,1.05 ± 0.06,1.03 ± 0.033,1.05 ± 0.041,1.04 ± 0.033,1.07 ± 0.065
UniProt Q9GZU8,1.02 ± 0.055,1.07 ± 0.044,0.995 ± 0.058,0.973 ± 0.049,0.931 ± 0.044,0.948 ± 0.034
ZWILCH (UniProt Q9H900),0.981 ± 0.017,0.933 ± 0.08,1.01 ± 0.048,0.946 ± 0.025,0.964 ± 0.041,0.968 ± 0.075
UniProt Q9H4X1 and related entries,1.02 ± 0.029,1.03 ± 0.08,1.01 ± 0.026,1 ± 0.028,0.997 ± 0.03,0.976 ± 0.021
EML4 (UniProt Q9HC35),0.998 ± 0.011,1.02 ± 0.046,1.01 ± 0.046,0.975 ± 0.017,0.975 ± 0.043,0.979 ± 0.043
UniProt Q9NPA8 and related entries,1.05 ± 0.058,1.06 ± 0.059,0.987 ± 0.044,1.06 ± 0.024,0.963 ± 0.035,1.07 ± 0.075
UniProt Q9H6Q4,0.993 ± 0.0077,0.994 ± 0.044,1.03 ± 0.022,0.977 ± 0.025,0.994 ± 0.029,0.992 ± 0.039
UniProt Q9H8P0 and related entries,0.933 ± 0.084,0.9132 ± 0.0065,0.948 ± 0.063,0.999 ± 0.14,1.02 ± 0.12,1.05 ± 0.15
UPF2 (UniProt Q9HAU5),0.998 ± 0.03,1.02 ± 0.059,0.999 ± 0.015,1.005 ± 0.01,1.007 ± 0.0027,1.02 ± 0.013
PARP12 (UniProt Q9H0J9),0.982 ± 0.046,0.946 ± 0.042,1.01 ± 0.022,0.991 ± 0.015,1.04 ± 0.029,1.01 ± 0.023

# In a second layout: entries from further up.
Target	NP40-soluble protein abundance (concentration: 1mM)	NP40-soluble protein abundance (concentration: 2mM)	NP40-soluble protein abundance (concentration: 4mM)	NP40-soluble protein abundance (concentration: 6mM)	NP40-soluble protein abundance (concentration: 8mM)	NP40-soluble protein abundance (concentration: 10mM)
ACTR5 (UniProt Q9H9F9)	1.05 ± 0.048	1.07 ± 0.037	1.07 ± 0.043	1.13 ± 0.018	1.14 ± 0.027	1.14 ± 0.024
DHX33 (UniProt Q9H6R0)	1.02 ± 0.023	1.06 ± 0.078	1.07 ± 0.082	1.12 ± 0.098	1.17 ± 0.12	1.18 ± 0.14
CBX8 (UniProt Q9HC52)	1.08 ± 0.015	1.1 ± 0.04	1.13 ± 0.018	1.23 ± 0.028	1.33 ± 0.062	1.39 ± 0.044
